Publication PMC8967061
Results are given in words; binding and its absence hold for the method and conditions named. Binding calls can cover weak binding; strength is not graded here.

Amino acid sequences for entries named in this document (tags omitted). A change or cut given only in a name is not applied to a line headed by its entry. Residues count along the entry.
UniProt P02649, residues 19-317: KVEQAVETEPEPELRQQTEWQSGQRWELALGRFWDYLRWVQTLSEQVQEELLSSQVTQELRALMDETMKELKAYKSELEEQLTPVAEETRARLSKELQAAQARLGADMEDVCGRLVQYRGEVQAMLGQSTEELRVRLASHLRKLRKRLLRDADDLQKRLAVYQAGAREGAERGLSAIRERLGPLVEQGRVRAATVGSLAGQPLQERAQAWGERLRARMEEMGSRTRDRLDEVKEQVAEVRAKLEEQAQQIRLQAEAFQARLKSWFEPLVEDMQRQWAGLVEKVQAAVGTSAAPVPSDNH
UniProt P08603: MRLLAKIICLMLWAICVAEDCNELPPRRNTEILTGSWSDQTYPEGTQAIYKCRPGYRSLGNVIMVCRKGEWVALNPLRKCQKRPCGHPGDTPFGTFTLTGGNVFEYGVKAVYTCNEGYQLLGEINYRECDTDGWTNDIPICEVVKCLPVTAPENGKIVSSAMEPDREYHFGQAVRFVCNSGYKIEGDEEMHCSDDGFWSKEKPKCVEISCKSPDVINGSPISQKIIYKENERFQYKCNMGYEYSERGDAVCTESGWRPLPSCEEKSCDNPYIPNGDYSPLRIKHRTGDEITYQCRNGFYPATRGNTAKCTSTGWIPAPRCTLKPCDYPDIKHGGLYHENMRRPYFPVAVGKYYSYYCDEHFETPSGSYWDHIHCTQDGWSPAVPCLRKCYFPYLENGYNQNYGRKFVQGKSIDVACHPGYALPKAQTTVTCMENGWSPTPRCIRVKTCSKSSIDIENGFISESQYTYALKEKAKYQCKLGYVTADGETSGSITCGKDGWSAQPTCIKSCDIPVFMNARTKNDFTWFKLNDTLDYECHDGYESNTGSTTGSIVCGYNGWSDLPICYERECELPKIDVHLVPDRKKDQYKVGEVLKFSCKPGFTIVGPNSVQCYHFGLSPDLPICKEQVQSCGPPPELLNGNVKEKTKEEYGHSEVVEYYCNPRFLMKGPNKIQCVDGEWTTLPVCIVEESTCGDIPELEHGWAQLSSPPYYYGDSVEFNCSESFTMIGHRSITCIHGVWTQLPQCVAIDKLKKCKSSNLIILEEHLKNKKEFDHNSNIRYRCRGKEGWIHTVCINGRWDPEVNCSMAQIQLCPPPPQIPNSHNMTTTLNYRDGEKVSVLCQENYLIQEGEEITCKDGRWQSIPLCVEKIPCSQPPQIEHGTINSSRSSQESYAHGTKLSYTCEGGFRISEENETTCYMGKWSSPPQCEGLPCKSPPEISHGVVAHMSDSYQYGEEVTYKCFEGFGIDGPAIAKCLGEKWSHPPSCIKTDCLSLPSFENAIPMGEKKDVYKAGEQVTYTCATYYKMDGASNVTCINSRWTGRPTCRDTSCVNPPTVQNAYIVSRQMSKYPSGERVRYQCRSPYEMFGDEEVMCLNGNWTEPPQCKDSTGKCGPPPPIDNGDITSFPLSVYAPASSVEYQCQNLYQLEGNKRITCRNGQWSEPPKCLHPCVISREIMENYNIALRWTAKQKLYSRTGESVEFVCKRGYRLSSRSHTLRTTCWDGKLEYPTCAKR

Experiments:
ApoE3 = ApoE3 (UniProt P02649); assay: ELISA; controls for the FH5-7 fragment: binding to ApoE and heparin (positive), BSA (negative); both purified
[1] = molecular target: T1, Factor H binding protein A (FhbA) from Borrelia hermsii, wild type (Borrelia hermsii YOR) (UniProt W5SB08); assay: ELISA; BhFhbA or BdFhbA (1 ug/ml) coated on plates, FH19-20 or FH5-7 added in serial dilutions, detected by polyclonal anti-FH (or monoclonal VIG8); both purified
T1 sequence: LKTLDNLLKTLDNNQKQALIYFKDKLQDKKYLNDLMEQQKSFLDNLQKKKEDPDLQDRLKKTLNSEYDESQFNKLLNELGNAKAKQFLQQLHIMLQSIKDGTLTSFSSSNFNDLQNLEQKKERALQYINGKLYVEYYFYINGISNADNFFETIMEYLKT

Substance: Factor H domains 5-7 (from UniProt P08603) (domain or fragment)
- binding (ApoE3): binds
- binding [1]: binds weakly
